# Measurements from the supplement of paper PMC12819154, “High-throughput peptide-centric local stability assay extends protein–ligand identification to membrane proteins, tissues and bacteria” (Nature Structural & Molecular Biology, 2025).
# Amino acid sequences for entries named in this document (tags omitted). A change or cut given only in a name is not applied to a line headed by its entry.
# UniProt Q60803: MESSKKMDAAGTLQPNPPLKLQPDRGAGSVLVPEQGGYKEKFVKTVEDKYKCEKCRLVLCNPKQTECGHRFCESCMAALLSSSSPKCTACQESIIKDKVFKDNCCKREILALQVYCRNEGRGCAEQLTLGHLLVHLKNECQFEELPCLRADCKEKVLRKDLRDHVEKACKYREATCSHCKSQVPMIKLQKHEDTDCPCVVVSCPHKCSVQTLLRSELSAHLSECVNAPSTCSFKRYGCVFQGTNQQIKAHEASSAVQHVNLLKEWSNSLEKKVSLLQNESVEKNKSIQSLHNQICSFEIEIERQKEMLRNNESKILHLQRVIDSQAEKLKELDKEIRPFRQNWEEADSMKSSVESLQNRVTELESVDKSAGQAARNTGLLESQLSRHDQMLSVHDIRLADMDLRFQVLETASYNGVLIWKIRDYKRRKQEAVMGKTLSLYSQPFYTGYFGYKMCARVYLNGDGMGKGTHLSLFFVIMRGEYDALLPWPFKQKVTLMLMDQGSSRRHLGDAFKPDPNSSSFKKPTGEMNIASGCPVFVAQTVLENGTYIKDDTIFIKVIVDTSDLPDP
# UniProt Q61234: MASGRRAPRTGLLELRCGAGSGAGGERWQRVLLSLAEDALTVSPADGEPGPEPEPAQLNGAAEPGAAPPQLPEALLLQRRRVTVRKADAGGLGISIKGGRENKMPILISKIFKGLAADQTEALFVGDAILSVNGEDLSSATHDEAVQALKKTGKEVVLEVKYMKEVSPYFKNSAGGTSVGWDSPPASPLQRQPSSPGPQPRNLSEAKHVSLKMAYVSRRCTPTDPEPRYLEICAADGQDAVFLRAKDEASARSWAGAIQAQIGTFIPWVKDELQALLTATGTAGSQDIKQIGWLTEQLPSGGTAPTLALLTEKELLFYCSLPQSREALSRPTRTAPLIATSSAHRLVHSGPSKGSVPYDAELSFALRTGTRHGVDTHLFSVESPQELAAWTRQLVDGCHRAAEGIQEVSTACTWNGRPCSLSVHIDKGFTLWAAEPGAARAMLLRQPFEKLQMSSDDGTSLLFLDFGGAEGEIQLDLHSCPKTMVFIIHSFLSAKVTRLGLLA
# UniProt Q60787: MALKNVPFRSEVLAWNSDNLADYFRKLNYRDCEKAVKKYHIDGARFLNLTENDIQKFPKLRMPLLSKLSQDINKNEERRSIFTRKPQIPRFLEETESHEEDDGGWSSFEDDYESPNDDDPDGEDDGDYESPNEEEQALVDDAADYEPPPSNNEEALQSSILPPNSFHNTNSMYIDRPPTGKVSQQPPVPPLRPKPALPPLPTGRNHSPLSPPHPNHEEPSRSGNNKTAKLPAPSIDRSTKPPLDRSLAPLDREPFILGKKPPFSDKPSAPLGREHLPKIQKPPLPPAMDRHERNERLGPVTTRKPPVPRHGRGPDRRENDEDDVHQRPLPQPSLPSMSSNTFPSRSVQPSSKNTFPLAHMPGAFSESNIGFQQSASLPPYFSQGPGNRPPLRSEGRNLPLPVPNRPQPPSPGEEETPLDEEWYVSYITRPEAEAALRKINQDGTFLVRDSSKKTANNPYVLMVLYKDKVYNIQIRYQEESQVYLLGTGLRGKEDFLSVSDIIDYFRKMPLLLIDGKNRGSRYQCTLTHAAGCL
# UniProt Q5RKZ7: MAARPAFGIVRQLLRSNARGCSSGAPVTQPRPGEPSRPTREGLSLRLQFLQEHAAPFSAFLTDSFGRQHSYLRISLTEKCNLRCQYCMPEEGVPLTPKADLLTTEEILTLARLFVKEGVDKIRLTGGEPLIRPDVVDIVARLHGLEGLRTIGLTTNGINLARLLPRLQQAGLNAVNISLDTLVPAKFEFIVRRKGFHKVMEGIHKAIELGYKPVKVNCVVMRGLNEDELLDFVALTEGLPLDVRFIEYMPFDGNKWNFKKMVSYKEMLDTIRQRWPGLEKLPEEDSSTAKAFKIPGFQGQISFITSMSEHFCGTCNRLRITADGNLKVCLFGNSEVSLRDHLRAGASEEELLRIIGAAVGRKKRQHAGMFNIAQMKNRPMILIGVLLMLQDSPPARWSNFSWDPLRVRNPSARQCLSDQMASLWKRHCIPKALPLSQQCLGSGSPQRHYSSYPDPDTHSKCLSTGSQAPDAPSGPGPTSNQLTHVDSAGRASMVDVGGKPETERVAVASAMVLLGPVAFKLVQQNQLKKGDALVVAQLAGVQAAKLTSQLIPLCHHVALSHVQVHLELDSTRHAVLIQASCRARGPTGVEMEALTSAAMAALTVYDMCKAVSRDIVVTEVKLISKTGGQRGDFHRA
# UniProt Q61179: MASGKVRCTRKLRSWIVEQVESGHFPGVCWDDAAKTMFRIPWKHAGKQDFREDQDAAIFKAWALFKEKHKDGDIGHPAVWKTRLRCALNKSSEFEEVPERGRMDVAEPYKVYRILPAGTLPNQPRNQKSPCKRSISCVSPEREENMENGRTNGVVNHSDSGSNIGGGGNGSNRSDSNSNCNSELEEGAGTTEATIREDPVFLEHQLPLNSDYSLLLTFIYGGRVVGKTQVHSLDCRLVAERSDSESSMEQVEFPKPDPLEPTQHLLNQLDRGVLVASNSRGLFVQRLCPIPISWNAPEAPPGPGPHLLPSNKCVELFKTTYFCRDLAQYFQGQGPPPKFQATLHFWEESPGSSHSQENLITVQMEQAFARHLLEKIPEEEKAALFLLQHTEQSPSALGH
# UniProt Q5RL51: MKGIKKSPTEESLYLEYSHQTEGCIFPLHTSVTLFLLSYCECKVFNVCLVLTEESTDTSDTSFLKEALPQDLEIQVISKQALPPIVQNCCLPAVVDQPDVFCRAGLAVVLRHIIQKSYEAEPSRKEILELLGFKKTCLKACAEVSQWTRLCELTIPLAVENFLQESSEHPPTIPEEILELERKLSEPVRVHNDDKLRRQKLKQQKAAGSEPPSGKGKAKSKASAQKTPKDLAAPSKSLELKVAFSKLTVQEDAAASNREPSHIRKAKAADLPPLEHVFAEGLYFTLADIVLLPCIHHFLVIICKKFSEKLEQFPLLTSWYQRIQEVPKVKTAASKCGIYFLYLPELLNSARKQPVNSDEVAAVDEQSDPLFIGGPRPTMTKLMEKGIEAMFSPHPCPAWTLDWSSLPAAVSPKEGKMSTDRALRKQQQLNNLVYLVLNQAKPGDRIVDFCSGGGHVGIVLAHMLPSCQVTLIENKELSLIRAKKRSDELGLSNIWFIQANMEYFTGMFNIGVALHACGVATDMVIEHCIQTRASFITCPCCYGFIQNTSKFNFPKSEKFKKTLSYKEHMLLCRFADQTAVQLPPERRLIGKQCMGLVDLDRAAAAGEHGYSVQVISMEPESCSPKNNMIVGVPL
# UniProt Q5U4C3: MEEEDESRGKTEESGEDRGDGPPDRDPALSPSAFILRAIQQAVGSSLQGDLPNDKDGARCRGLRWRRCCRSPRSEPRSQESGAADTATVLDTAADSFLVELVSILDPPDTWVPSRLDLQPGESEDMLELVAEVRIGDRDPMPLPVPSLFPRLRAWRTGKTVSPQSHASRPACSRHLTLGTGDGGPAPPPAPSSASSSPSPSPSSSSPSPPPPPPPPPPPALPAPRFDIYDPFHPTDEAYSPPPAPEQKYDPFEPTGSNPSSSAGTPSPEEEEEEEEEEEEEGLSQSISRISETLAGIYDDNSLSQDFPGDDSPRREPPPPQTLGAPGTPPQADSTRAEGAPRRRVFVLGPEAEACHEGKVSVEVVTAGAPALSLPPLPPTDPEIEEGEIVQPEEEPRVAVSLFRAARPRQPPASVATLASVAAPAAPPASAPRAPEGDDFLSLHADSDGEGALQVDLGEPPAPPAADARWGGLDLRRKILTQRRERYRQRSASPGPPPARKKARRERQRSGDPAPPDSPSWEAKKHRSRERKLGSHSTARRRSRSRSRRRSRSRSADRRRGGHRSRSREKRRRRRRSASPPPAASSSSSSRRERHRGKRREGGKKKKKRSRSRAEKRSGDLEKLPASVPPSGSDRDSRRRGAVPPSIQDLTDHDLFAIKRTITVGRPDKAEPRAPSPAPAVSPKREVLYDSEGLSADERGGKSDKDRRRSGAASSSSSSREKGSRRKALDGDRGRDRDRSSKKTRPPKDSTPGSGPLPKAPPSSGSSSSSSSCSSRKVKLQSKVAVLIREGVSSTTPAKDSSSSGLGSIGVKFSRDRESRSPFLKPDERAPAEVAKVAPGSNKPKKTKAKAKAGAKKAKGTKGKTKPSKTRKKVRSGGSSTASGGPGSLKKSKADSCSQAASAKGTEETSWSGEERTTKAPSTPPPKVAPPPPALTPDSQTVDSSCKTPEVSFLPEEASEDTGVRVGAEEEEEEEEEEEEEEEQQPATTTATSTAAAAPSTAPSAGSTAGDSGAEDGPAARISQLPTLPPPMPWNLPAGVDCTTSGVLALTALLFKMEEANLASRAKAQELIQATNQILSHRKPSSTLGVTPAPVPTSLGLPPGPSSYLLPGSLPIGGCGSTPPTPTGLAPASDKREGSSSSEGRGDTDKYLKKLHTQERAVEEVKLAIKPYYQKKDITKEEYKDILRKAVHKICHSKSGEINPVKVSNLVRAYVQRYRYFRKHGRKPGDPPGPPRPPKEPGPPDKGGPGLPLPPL
# UniProt Q5NCF2, whole entry: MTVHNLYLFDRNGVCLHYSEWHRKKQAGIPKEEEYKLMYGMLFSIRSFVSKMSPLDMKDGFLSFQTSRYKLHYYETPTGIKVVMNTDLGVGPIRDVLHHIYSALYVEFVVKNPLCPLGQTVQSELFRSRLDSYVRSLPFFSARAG
# UniProt Q61074: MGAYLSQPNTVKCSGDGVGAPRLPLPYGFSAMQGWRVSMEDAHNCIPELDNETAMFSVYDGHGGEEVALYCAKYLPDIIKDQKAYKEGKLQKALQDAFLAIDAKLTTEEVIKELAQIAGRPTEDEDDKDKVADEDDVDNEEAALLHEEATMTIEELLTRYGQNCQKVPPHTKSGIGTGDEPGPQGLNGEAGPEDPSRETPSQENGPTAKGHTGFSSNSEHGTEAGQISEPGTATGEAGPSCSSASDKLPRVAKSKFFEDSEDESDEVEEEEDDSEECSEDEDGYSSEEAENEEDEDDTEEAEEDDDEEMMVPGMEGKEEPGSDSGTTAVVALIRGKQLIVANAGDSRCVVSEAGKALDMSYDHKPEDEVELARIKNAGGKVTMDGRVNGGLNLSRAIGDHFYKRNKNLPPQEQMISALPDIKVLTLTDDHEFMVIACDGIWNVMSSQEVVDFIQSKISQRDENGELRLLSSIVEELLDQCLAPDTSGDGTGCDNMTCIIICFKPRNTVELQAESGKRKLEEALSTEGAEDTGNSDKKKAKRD
# UniProt Q60862: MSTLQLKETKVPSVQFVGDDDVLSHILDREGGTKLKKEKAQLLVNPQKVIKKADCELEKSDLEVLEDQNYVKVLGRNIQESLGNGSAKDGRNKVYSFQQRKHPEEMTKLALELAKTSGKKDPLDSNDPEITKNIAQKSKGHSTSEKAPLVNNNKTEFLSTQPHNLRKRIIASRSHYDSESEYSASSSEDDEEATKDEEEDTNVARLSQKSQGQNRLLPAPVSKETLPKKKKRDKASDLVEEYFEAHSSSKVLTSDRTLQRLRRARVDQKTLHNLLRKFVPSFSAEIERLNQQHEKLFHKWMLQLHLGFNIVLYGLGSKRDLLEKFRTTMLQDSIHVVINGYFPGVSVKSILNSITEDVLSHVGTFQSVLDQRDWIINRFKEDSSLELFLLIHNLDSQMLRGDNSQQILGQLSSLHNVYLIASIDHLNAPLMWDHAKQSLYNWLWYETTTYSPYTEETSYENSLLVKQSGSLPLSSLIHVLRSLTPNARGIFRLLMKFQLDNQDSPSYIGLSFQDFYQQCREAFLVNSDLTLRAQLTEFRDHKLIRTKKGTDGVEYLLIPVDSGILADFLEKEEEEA
# UniProt Q61183: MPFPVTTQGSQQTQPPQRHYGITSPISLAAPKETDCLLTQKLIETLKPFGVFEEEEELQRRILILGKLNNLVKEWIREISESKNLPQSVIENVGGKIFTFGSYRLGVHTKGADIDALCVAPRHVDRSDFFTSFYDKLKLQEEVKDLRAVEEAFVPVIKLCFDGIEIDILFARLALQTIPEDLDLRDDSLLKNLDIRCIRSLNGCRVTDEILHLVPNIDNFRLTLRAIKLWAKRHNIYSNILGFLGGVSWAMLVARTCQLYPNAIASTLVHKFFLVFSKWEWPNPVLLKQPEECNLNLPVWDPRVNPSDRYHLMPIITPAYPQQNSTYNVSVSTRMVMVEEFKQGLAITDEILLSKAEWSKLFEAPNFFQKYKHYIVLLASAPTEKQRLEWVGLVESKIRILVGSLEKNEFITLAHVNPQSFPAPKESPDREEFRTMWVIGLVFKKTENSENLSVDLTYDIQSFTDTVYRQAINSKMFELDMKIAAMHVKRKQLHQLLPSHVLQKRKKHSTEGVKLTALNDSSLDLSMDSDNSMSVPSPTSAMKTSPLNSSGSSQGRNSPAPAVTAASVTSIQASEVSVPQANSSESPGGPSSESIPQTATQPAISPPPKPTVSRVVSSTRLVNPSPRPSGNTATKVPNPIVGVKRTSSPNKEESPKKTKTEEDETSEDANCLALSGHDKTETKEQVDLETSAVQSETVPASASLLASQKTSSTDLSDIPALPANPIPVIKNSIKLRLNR
# The other results are listed elsewhere or left out. Most entries show no effect beyond the scatter of the controls.
# Compound: CN[C@@H]1C[C@H]2O[C@@](C)([C@@H]1OC)n1c3ccccc3c3c4c(c5c6ccccc6n2c5c31)C(=O)NC4 [staurosporine]
# Assay: log2 fold change of tryptic peptide abundance, ligand vs vehicle (limited proteolysis) (log2 ratio); higher = more trypsin-susceptible (destabilized)
# Details: ligand concentration: 20 uM; sample: mouse liver crude lysate; replicate design: treated separately
row,Target,log2 fold change
1,"UniProt Q61194 (peptide sequence: TRNPTFNEMLVYSGYSK, peptide start residue: 1618)",-0.397
2,"UniProt Q60803 (peptide sequence: VTELESVDK, peptide start residue: 360)",-0.121
3,"UniProt Q60590 (peptide sequence: QLELGKETK, peptide start residue: 191)",-0.105
4,"UniProt Q61026 (peptide sequence: SMVNGGSWSGEPPRR, peptide start residue: 179)",0.562
5,"UniProt Q5ND52 (peptide sequence: VKFEDIK, peptide start residue: 168)",0.337
6,"UniProt Q61234 (peptide sequence: QPSSPGPQPR, peptide start residue: 192)",-0.215
7,"UniProt Q5Y5T2 (peptide sequence: SDDPACGAKPDASMVGGHP, peptide start residue: 362)",-0.122
8,"UniProt Q60787 (peptide sequence: STKPPLDR, peptide start residue: 238)",-0.245
9,"UniProt Q61124 (peptide sequence: RLEDSEREETDSEPQAPR, peptide start residue: 10)",0.0931
10,"UniProt Q5RKZ7 (peptide sequence: QHAGMFNIAQMK, peptide start residue: 365)",-0.115
11,"UniProt Q5XPI3 (peptide sequence: ELIPTTWWPHR, peptide start residue: 451)",-0.21
12,"UniProt Q5SX79 (peptide sequence: KDYSTQELQR, peptide start residue: 245)",-0.336
13,"UniProt Q5SNZ0 (peptide sequence: QSLQNCQNLSK, peptide start residue: 519)",0.345
14,"UniProt Q5SXY1 (peptide sequence: EVCDHQAEQLSR, peptide start residue: 631)",0.419
15,"UniProt Q61179 (peptide sequence: MDVAEPYKVYR, peptide start residue: 103)",-0.405
16,"UniProt Q60676 (peptide sequence: TECAETPRDEPPADGTLK, peptide start residue: 9)",0.253
17,"UniProt Q5PSV9 (peptide sequence: EPPGHQHLVHTSPVHTELLR, peptide start residue: 739)",-0.682
18,"UniProt Q61166 (peptide sequence: GKFQDNFEFVQWFKK, peptide start residue: 99)",-0.969
19,"UniProt Q5XKN4 (peptide sequence: AAGTDGSDFQHR, peptide start residue: 9)",0.0713
20,"UniProt Q5NC05 (peptide sequence: SPDNPFSR, peptide start residue: 859)",-0.36

# Part of the list above in another layout:
row | Target | log2 fold change
4 | UniProt Q61026 (peptide sequence: SMVNGGSWSGEPPRR, peptide start residue: 179) | 0.562
5 | UniProt Q5ND52 (peptide sequence: VKFEDIK, peptide start residue: 168) | 0.337
6 | UniProt Q61234 (peptide sequence: QPSSPGPQPR, peptide start residue: 192) | -0.215
7 | UniProt Q5Y5T2 (peptide sequence: SDDPACGAKPDASMVGGHP, peptide start residue: 362) | -0.122
8 | UniProt Q60787 (peptide sequence: STKPPLDR, peptide start residue: 238) | -0.245
9 | UniProt Q61124 (peptide sequence: RLEDSEREETDSEPQAPR, peptide start residue: 10) | 0.0931
10 | UniProt Q5RKZ7 (peptide sequence: QHAGMFNIAQMK, peptide start residue: 365) | -0.115
11 | UniProt Q5XPI3 (peptide sequence: ELIPTTWWPHR, peptide start residue: 451) | -0.21
12 | UniProt Q5SX79 (peptide sequence: KDYSTQELQR, peptide start residue: 245) | -0.336
13 | UniProt Q5SNZ0 (peptide sequence: QSLQNCQNLSK, peptide start residue: 519) | 0.345
14 | UniProt Q5SXY1 (peptide sequence: EVCDHQAEQLSR, peptide start residue: 631) | 0.419

# (further entries)

row,Target,log2 fold change
1,"UniProt Q5RL51 (peptide sequence: EILELLGFKK, peptide start residue: 126)",0.291
2,"UniProt Q61206 (peptide sequence: GEKPNPLR, peptide start residue: 143)",-0.468
3,"UniProt Q5U4C3 (peptide sequence: SASPGPPPAR, peptide start residue: 491)",-0.368
4,"UniProt Q60987 (peptide sequence: ADALGAK, peptide start residue: 113)",-0.238
5,"UniProt Q60680 (peptide sequence: WCHEIQIMK, peptide start residue: 58)",0.664
6,"UniProt Q5NCF2 (peptide sequence: SLPFFSAR, peptide start residue: 136)",-0.41
7,"UniProt Q61144 (peptide sequence: TSLMSAESPTSR, peptide start residue: 18)",0.124
8,"UniProt Q5XJE5 (peptide sequence: QGTGLQGQAVFK, peptide start residue: 476)",0.304
9,"UniProt Q61074 (peptide sequence: ALQDAFLAIDAK, peptide start residue: 93)",0.226
10,"UniProt Q60876 (peptide sequence: KFLMECR, peptide start residue: 56)",0.0744
11,"UniProt Q61024 (peptide sequence: ADWLTHYWMPK, peptide start residue: 530)",-0.657
12,"UniProt Q60862 (peptide sequence: TLHNLLR, peptide start residue: 270)",-0.044
13,"UniProt Q61214 (peptide sequence: MHTGGETSACKPSSVR, peptide start residue: 1)",0.37
14,"UniProt Q61048 (peptide sequence: KSTNPYGEWQEIK, peptide start residue: 290)",0.237
15,"UniProt Q5SQX6 (peptide sequence: TMLESLIADKSGSKK, peptide start residue: 564)",-0.118
16,"UniProt Q61183 (peptide sequence: VPNPIVGVK, peptide start residue: 636)",0.244
17,"UniProt Q61292 (peptide sequence: EQVGDQYQTVR, peptide start residue: 1705)",-0.503
18,"UniProt Q5SSH7 (peptide sequence: SLLSLGNDSEEKR, peptide start residue: 1392)",-0.129
19,"UniProt Q5FWH2 (peptide sequence: AHGTVLRPCQHR, peptide start residue: 693)",-0.117
